Test results reported in patent publication EP2848696A1, “Caspase-1 imaging probes” (Sanofi-Aventis Deutschland GmbH, priority 2013, dated 2015).
At least one read-out could not be matched to a standard name with certainty.

Target: T1, Caspase-1 (Homo sapiens, UniProt P29466)
T1 sequence (P29466 120-297 limits assumed): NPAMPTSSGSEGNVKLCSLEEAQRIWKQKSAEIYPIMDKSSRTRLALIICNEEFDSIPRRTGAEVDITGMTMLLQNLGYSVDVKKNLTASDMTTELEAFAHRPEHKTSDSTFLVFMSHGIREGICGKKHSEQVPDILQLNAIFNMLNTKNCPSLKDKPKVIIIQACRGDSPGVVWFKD
T1 sequence (P29466 317-404 limits assumed): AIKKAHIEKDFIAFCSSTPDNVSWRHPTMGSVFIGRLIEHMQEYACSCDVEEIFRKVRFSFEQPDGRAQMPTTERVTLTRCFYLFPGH
Test: Kinetic characterization (Km and kcat/Km of probe hydrolysis)
Assay type: biochemical
Conditions: summary of biological assays
Protocol: Km and kcat/Km values were determined using standard methods (Kindermann et al., 2010; Rozman Pungercar et al., 2003). Caspase-1 was added to increasing concentrations of the probe and initial velocities of probe hydrolysis were calculated from the slopes of the lines of the fluorescence increase. Km and kcat (Vmax) values were then determined by nonlinear regression analysis using the Prism program.

## CCN(CC)c1ccc2cc(C(=O)NNC(=O)[C@H](CC(=O)O)NC(=O)[C@@H]3CCCN4C(=O)CC[C@H](NC(=O)c5cc6ccc(OC)cc6oc5=O)C(=O)N34)c(=O)oc2c1 [Probe III]
  Kcat/Km (in words): - Efficient Kcat/Km
